Reference: the supplement of paper PMC12067093, “Discovery and optimisation of a covalent ligand for TRIM25 and its application to targeted protein ubiquitination” (Chemical Science, 2025)
The other results are listed elsewhere or left out.

Amino acid sequences for entries named in this document (tags omitted). A change or cut given only in a name is not applied to a line headed by its entry.
UniProt Q5JTH9: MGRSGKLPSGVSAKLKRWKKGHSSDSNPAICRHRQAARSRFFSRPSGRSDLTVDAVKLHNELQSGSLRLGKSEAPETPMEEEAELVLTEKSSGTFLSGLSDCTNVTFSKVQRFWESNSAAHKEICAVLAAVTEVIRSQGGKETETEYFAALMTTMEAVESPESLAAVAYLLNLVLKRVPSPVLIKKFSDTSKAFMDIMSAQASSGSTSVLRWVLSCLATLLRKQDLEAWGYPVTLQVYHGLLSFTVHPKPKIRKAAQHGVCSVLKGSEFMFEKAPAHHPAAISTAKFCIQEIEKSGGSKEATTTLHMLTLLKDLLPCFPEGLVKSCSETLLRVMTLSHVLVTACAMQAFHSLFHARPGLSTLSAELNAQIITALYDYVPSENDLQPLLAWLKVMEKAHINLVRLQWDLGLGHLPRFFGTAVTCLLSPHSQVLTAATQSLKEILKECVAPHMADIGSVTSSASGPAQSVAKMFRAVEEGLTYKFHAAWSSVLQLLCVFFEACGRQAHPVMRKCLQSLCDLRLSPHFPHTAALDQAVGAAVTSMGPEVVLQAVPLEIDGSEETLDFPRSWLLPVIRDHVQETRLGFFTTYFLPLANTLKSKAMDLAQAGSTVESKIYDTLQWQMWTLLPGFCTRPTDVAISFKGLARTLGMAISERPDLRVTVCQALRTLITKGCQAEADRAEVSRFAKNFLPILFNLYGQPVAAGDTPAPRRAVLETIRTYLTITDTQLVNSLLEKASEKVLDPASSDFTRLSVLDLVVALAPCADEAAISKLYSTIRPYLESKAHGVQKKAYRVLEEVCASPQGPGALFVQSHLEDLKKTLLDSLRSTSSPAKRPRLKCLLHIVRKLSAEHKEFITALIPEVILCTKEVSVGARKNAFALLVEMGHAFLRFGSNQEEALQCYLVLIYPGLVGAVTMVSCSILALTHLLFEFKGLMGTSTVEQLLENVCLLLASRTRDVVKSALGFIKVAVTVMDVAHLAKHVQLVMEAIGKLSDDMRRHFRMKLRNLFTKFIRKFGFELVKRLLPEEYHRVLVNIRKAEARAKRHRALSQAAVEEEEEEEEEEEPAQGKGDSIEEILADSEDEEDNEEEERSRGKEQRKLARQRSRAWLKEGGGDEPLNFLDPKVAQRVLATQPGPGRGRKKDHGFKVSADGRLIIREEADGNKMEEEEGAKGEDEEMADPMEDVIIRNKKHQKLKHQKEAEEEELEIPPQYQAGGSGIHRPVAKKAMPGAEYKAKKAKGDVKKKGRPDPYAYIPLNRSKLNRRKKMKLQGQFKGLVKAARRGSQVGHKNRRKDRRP

Target: RRP12_Q5JTH9_839_CLLHIVR (UniProt Q5JTH9)
Experiment: probe-labelled cysteine peptide fold change vs DMSO (competition) (log2 fold change); higher = less target engagement (more negative = stronger competition)
Details: THP-1, incubation time: 4 h
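Note: competitive profiling in live THP-1 cells: cysteine peptides tagged with an iodoacetamide desthiobiotin (IA-DTB) probe, intensity after compound treatment relative to DMSO-treated cells.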

## Cc1cc(C(=O)N2CCCN(C(=O)CCl)CC2)ccc1-c1ccccc1 [compound 10]
10 µM
  probe-labelled cysteine peptide fold change: -0.534
50 µM
  probe-labelled cysteine peptide fold change: -0.0161
